{"source": "patent US20260152777A1", "about": "“METHOD FOR PRODUCING EPIGALLOCATECHIN GALLATE MONOGLUCOSIDE” (GIVAUDAN SA, priority 2022, published 2026)", "tested_on": "Bacillus sp.", "experiment": "Consumption of EGCG MONOG by Bacillus sp. (HPLC-UV-MS)", "conditions": "for concentration in Bacillus sp. culture (HPLC) / Variation over 48 h of concentration in Bacillus sp. culture: medium with 1% of purified preparation from Example 1"}
{"molecule": "O=C(O[C@@H]1Cc2c(O)cc(O)cc2O[C@@H]1c1cc(O)c(O)c(O)c1)c1cc(O)c(O)c(O)c1", "note": "[EGCG aglycone, epigallocatechin gallate]", "values": [{"measurement": "concentration in Bacillus sp. culture (HPLC)", "setting": "Time 24 h", "value": 0.009, "unit": "nM"}, {"measurement": "concentration in Bacillus sp. culture (HPLC)", "setting": "Time 27 h", "value": 0.035, "unit": "nM"}, {"measurement": "concentration in Bacillus sp. culture (HPLC)", "setting": "Time 30 h", "value": 0.038, "unit": "nM"}, {"measurement": "concentration in Bacillus sp. culture (HPLC)", "setting": "Time 48 h", "value": 0.013, "unit": "nM"}, {"measurement": "concentration in Bacillus sp. culture (HPLC)", "setting": "Time 54 h", "value": 0.006, "unit": "nM"}, {"measurement": "concentration in Bacillus sp. culture (HPLC)", "setting": "Time 72 h", "value": 0.002, "unit": "nM"}, {"measurement": "detection in Bacillus sp. culture", "setting": "after 24 hours, culture with EGCG MONOG", "value": "could not be detected"}, {"measurement": "Variation over 48 h of concentration in Bacillus sp. culture", "value": -0.005, "unit": "nM"}]}
{"molecule": "O=C(O[C@@H]1Cc2c(O)cc(O)cc2O[C@@H]1c1cc(O)c(O[C@H]2O[C@H](CO)[C@@H](O)[C@H](O)[C@H]2O)c(O)c1)c1cc(O)c(O)c(O)c1", "note": "[epigallocatechin gallate 4′-O-α-monoglucoside]", "values": [{"measurement": "concentration in Bacillus sp. culture (HPLC)", "setting": "Time 24 h", "value": 0.751, "unit": "nM"}, {"measurement": "concentration in Bacillus sp. culture (HPLC)", "setting": "Time 27 h", "value": 0.678, "unit": "nM"}, {"measurement": "concentration in Bacillus sp. culture (HPLC)", "setting": "Time 30 h", "value": 0.614, "unit": "nM"}, {"measurement": "concentration in Bacillus sp. culture (HPLC)", "setting": "Time 48 h", "value": 0.443, "unit": "nM"}, {"measurement": "concentration in Bacillus sp. culture (HPLC)", "setting": "Time 54 h", "value": 0.434, "unit": "nM"}, {"measurement": "concentration in Bacillus sp. culture (HPLC)", "setting": "Time 72 h", "value": 0.288, "unit": "nM"}, {"measurement": "Variation over 48 h of concentration in Bacillus sp. culture", "value": -0.307, "unit": "nM"}]}
